Publication PMC11120602
No constants are given. Whether binding was seen depends on the method and setting. In cells and extracts the contact can be indirect. Some results given as binding are weak or reduced against the parent protein; the word gives no strength. Tags and fused reporters may be left off the sequences shown.

By UniProt entry, the sequences of proteins in these tests, tags left out.
UniProt O14744: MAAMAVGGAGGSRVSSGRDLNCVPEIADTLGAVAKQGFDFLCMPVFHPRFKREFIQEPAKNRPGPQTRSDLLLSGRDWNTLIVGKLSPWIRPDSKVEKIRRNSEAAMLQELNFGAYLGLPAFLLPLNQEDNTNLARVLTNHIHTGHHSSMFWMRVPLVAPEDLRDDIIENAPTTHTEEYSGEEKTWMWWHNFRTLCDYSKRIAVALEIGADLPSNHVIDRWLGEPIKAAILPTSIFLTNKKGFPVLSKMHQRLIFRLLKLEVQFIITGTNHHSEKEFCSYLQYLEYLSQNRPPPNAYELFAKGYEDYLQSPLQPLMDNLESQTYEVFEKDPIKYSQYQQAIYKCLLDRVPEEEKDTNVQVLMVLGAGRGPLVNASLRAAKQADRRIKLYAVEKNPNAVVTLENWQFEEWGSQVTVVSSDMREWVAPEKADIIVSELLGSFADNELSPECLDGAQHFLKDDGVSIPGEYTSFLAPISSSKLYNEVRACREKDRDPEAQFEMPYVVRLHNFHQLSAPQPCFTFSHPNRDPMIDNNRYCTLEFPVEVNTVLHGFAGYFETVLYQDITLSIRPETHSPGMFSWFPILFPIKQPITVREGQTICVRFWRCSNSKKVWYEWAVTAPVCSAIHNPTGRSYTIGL

Assays:
[1] = target: PRMT5-Flag (protein arginine N-methyltransferase 5) (human) (UniProt O14744); experiment: co-IP; HEK293FT cells co-transfected with PRMT5-Flag and/or RORα-HA; hypotonic gentle lysis buffer (10 mM Tris-HCl pH 7.5, 2 mM EDTA, 0.5% Triton X-100), brought to 150 mM NaCl; anti-Flag M2 affinity gel; Western blot
[2] = target: GST-PRMT5 fusion protein (human) (UniProt O14744); experiment: pull-down; GST-PRMT5 on glutathione agarose beads incubated with RORα-expressing HEK293FT cell lysate at 4 °C for 4 h; washed three times with RIPA buffer; Western blot; only the target purified

binding [1]	binding [2]	Binder
binds	–	RORα-HA (retinoic acid receptor-related orphan receptor alpha, isoform RORα1) (protein, UniProt P35398-2 1-523) MESAPAAPDPAASEPGSSGADAAAGSRETPLNQESARKSEPPAPVRRQSYSSTSRGISVTKKTHTSQIEIIPCKICGDKSSGIHYGVITCEGCKGFFRRSQQSNATYSCPRQKNCLIDRTSRNRCQHCRLQKCLAVGMSRDAVKFGRMSKKQRDSLYAEVQKHRMQQQQRDHQQQPGEAEPLTPTYNISANGLTELHDDLSNYIDGHTPEGSKADSAVSSFYLDIQPSPDQSGLDINGIKPEPICDYTPASGFFPYCSFTNGETSPTVSMAELEHLAQNISKSHLETCQYLREELQQITWQTFLQEEIENYQNKQREVMWQLCAIKITEAIQYVVEFAKRIDGFMELCQNDQIVLLKAGSLEVVFIRMCRAFDSQNNTVYFDGKYASPDVFKSLGCEDFISFVFEFGKSLCSMHLTEDEIALFSAFVLMSADRSWLQEKVKIEKLQQKIQLALQHVLQKNHREDGILTKLICKVSTLRALCGRHTEKLMAFKAIYPDIVRLHFPPLYKELFTSEFEPAMQIDG
–	binds	RORα1-Flag (protein, UniProt P35398-2 1-523) MESAPAAPDPAASEPGSSGADAAAGSRETPLNQESARKSEPPAPVRRQSYSSTSRGISVTKKTHTSQIEIIPCKICGDKSSGIHYGVITCEGCKGFFRRSQQSNATYSCPRQKNCLIDRTSRNRCQHCRLQKCLAVGMSRDAVKFGRMSKKQRDSLYAEVQKHRMQQQQRDHQQQPGEAEPLTPTYNISANGLTELHDDLSNYIDGHTPEGSKADSAVSSFYLDIQPSPDQSGLDINGIKPEPICDYTPASGFFPYCSFTNGETSPTVSMAELEHLAQNISKSHLETCQYLREELQQITWQTFLQEEIENYQNKQREVMWQLCAIKITEAIQYVVEFAKRIDGFMELCQNDQIVLLKAGSLEVVFIRMCRAFDSQNNTVYFDGKYASPDVFKSLGCEDFISFVFEFGKSLCSMHLTEDEIALFSAFVLMSADRSWLQEKVKIEKLQQKIQLALQHVLQKNHREDGILTKLICKVSTLRALCGRHTEKLMAFKAIYPDIVRLHFPPLYKELFTSEFEPAMQIDG
